Laboratory results published in article PMC12248476.
No constants are given. Whether binding was seen depends on the method and setting. In cells and extracts the contact can be indirect. Sequences can lack the tags named with a protein.

Biological target: V5-tagged PHD3
Assay: co-IP; HEK293T cells co-transfected with Flag-FOXA1 and V5-PHD1, PHD2 or PHD3; IP with anti-V5, blot with anti-Flag

B1: Flag-tagged FOXA1 (protein, UniProt P55317 1-472)
chain: MLGTVKMEGHETSDWNSYYADTQEAYSSVPVSNMNSGLGSMNSMNTYMTMNTMTTSGNMTPASFNMSYANPGLGAGLSPGAVAGMPGGSAGAMNSMTAAGVTAMGTALSPSGMGAMGAQQAASMNGLGPYAAAMNPCMSPMAYAPSNLGRSRAGGGGDAKTFKRSYPHAKPPYSYISLITMAIQQAPSKMLTLSEIYQWIMDLFPYYRQNQQRWQNSIRHSLSFNDCFVKVARSPDKPGKGSYWTLHPDSGNMFENGCYLRRQKRFKCEKQPGAGGGGGSGSGGSGAKGGPESRKDPSGASNPSADSPLHRGVHGKTGQLEGAPAPGPAASPQTLDHSGATATGGASELKTPASSTAPPISSGPGALASVPASHPAHGLAPHESQLHLKGDPHYSFNHPFSINNLMSSSEQQHKLDFKAYEQALQYSPYGSTLPASLPLGSASVTTRSPIEPSALEPAYYQGVYSRPVLNTS
  binding: no binding
